Results published in PMC10163288.
The other results are listed elsewhere or left out.

B1: il10ra_site1_sap_28_mot_HHH_b2_07488_000000216_0001_1_17_H_._HHH_b2_03105_0001_0000100001_0000002_0_0001_af2pred_0001 (protein)
chain: SSSSSEEVFKRVAELLAEASRAARKDPEKAEEILEEARQLAEENNDPALKYAVEFIEERVSSSSS
B2: il10ra_site1_sap_11_mot_HHH_b1_05357_000000034_0001_23_39_H_._HHH_b2_08187_0002_0000100013_0000001_0_0001 (protein)
chain: SSSSDEDERYLRLALRFARWLIEVGDERAARRILEAIRDIAKRANDEEALEEAQRLLEEVGSSSS
B3: il10ra_site1_sap_36_mot_HHH_b2_02736_000000092_0001_22_38_H_._HHH_b1_05500_af2_0001_0000400033_0000001_0_0001_af2pred_dldesign_0_af2pred (protein)
chain: SPELDRIIELYEAGKPEEAALLAAALRRRAREAGDPERVAGLFEILCLLYAGKPEEARALAERLS
B4: il10ra_site1_normal_mot_HHH_b2_01310_000000089_0001_41_55_H_._HHH_b2_07107_af2_0003_0000100001_0000001_0 (protein)
chain: SSSSDEELQELFEEARELIENGNPEEAVELLQRLVQLAFRLQDEEALRLVLELAELLRELSSSSS
B5: il10ra_site1_normal_mot_HHH_b2_04275_000000272_0001_20_36_H_._HHH_b1_02719_af2_0001_0000100005_0000001_0 (protein)
chain: SSSSSSERIYELLRKLSELIHEGNEEEAQEVIEELRELIEKNNNDVARAQLEFLERHLEGSSSSS
B6: il10ra_site1_sap_19_mot_HHH_b1_00123_000000192_0001_20_37_H_._HHH_b1_05978_af2_0001_0000600017_0000001_0_0001 (protein)
chain: SSSSSSDVEELIEEAEELLEEGDPRKAIRALQEAVELAFRLGDEELLRRIWELAKRVASSSSSSS
B7: il10ra_site1_sap_25_mot_HHH_b2_04050_000000291_0001_1_20_H_._HHH_b1_05968_af2_0001_0000100006_0000001_0_0001 (protein)
chain: SSSSRWVERSFEAARHLLEAGDIEYAKLAIRFLEALAEATNDPEARELVEELKELLEEIEKSSSS
B8: il10ra_site1_normal_mot_82a85cb19d3401380e8a5036dcc53c2d_0001_af2_000000275_0001_3_13_H_._HHH_b2_06737_0001_0000100007_0000001_0_af2pred_0001 (protein)
chain: SSSSSEDEERVEELLEEAKEIEDRERRYQVLLEAYLLALQSNDPELEELVKRVAVELSEESSSSS
B9: il10ra_site1_sap_20_mot_HHH_b2_02053_af2_000000006_0001_3_19_H_._HHH_b2_05169_0001_0000100005_0000001_0_0001_af2pred_0001 (protein)
chain: SSSSSSESEELVRLIREAVKLLLDGNPEEAQRVAEEAFELAEEAGNLNLLAVIEYLLRRISSSSS
B10: il10ra_site1_sap_21_mot_HHH_b2_04679_000000194_0001_21_38_H_._HHH_b2_05720_0001_0000200026_0000001_0_0001 (protein)
chain: SSSADEHYEEIERVVQEADELYRNGNPEEAEELLEEAAKRAEEAGDWVLLQVLEMLLRLIRSSSS
B11: il10ra_site1_sap_19_mot_HHH_b1_06798_000000292_0001_1_19_H_._HHH_b1_00992_0001_0000100011_0000001_0_0001 (protein)
chain: SSSSTVEESLKVTLELIEQLLRLGDRERAREIIEILKKYIEEARDEEAREILEKLEEEVNSSSSS
B12: il10ra_site1_sap_20_mot_HHH_b1_05056_000000217_0001_1_20_H_._HHH_b1_04481_0001_0000300038_0000001_0_0001 (protein)
chain: SSSSSEEAEEVWEILREVLELLAQGDPEEAEELVRKALELAEELGDFIFERSARMLLELARSSSS
B13: il10ra_site1_normal_mot_HHH_b2_04275_000000272_0001_20_36_H_._HHH_b1_02719_af2_0001_0000100005_0000001_0_af2pred_dldesign_0_af2pred (protein)
chain: SSSSSNEEVYRLLREYAELLAAGKREEAAKVRKELKELIEKLNNEVAKYTLDYLERHELESSSSS
B14: il10ra_site1_sap_25_mot_HHH_b2_07388_000000275_0001_18_35_H_._7abaf38a3307e851c9e6880adce6b300_0001_1_0001_0000100003_0000001_0_0001_af2pred_0001 (protein)
chain: SSSSDEEEEEVEKLLEELEKLLERGDREEVFRLFREAARIIAELRDEEAFRRLQELLKRLFSSSS
B15: il10ra_site1_sap_21_mot_HHH_b1_03859_af2_000000004_0001_44_57_H_._HHH_b1_03368_af2_0001_0000300008_0000001_0_0001_1 (protein)
chain: SSSSTDEVYERLEELIKEAHEAYRNNDEELLRELAEEIEELAEKFNNWAVRAVAEVVKKLGSSSS
B16: il10ra_site1_sap_21_mot_HHH_b2_00033_000000036_0001_41_54_H_._HHH_b1_05655_0001_0000600039_0000002_0_0001 (protein)
chain: SSSSDENEEALKLAREAVEAALRGNPEEAQELLEEAEELARKGGNERLVRMIERLLETLKSSSSS
B17: il10ra_site1_sap_18_mot_HHH_b1_03531_000000273_0001_41_54_H_._HHH_b2_02783_0001_0000200007_0000002_0_0001 (protein)
chain: SSSSSKEEEQLRLSLEFAKWLLEEGDPEAARRIAEAALDIARRLGDEELEEEIEELLREIGSSSS
B18: il10ra_site1_sap_21_mot_HHH_b1_02997_000000220_0001_39_52_H_._HHH_b2_04414_0001_0000100006_0000002_0_0001 (protein)
chain: SSSSQEAAELVLRAFRLALRGNLEEAREIAEEALEIAEEEGNEQARETIETFLRTLKARLDSSSS
B19: il10ra_site1_normal_mot_HHH_b2_06979_000000158_0001_42_57_H_._HHH_b2_00250_0001_0000400013_0000001_1 (protein)
chain: SSSSTEAQELYELVRRLVEALAEGDEELVRELARELEELAEELNNELFLINARFILEDVESSSSS
B20: il10ra_site1_normal_mot_8756ee2cf497b5429c717dfc0c0bcfd6_0001_000000186_0001_1_13_H_._HHH_b1_07180_0001_0000300021_0000001_0_af2pred_0001 (protein)
chain: SSSSDLIERLFELLKRIAELHSEGNEEEARELIEEAQEVAEEAGNEVARAILEFLEKNLNSSSSS
B21: il10ra_site1_sap_19_mot_a6c796b944619e241e020fd597ddb6da_0001_af2_000000092_0001_15_31_H_._HHH_b2_00760_af2_0001_0000300007_0000001_1_0001 (protein)
chain: SSSSSDEEIEERVEELLEEAEKIDDPDEAYKALKEAIELAAELNDPRLFRLIMEVLHRWISSSSS
B22: il10ra_site1_sap_19_mot_HHH_b2_06602_000000226_0001_1_16_H_._HHH_b1_03685_af2_0001_0000100006_0000001_0_0001 (protein)
chain: SSSSHLAEVAFRLAEESLRWAAEENDPEALKRSLEAFSLALEELGNPELVERLEELYEELSSSSS
B23: il10ra_site1_sap_8_mot_HHH_b1_06786_000000000_0001_1_20_H_._HHH_b1_05947_0001_0000200009_0000001_1_0001 (protein)
chain: SSSSDREERIQELLERAEELAEEGDPREAARLLQEAIHLAFELGDWELLHEIWRVLRKVASSSSS
B24: il10ra_site1_sap_28_mot_0eddeacbb14b769e73e254714f31e2f9_0001_af2_000000203_0001_37_51_H_._ems_3hM_77_0001_0000100001_0000002_1_0001 (protein)
chain: SSSSDVEERIEELLEEIERLLEEGNPEEAYKLLREVAEIAHENNDEEASQRVLELSRLASSSSSS

These binders were tested against il10ra, Q13651 (assay: yeast display titration).

Apparent Kd, inactive:
B1 no binding seen
B2 no binding seen
B3 no binding seen
B4 no binding seen
B5 no binding seen
B6 no binding seen
B7 no binding seen
B8 no binding seen
B9 no binding seen
B10 no binding seen
B11 no binding seen
B12 no binding seen
B13 no binding seen
B14 no binding seen
B15 no binding seen
B16 no binding seen
B17 no binding seen
B18 no binding seen
B19 no binding seen
B20 no binding seen
B21 no binding seen
B22 no binding seen
B23 no binding seen
B24 no binding seen

An excerpt from further up:
Apparent Kd, inactive:
B4 no binding seen
B5 no binding seen
